Source: the supplement of paper PMC8104966
± gives the standard deviation of the averaged measurements. The list shows a part of the results. This data set is noisy: repeats of one test often differ as much as different tests do.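 Fusion between ACE2-bearing and full-length-spike-bearing U2OS cells was measured by imaging as the percentage of nuclei with both cell types' fluorescent markers. An inhibitory hit is a non-toxic compound whose fusion z-score is below -3, more than three standard deviations beneath the plate's DMSO wells.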

These compounds were tested on U2OS ACE2 x SARS-CoV-2 spike co-culture (assay: cell-cell fusion (fraction fused) z-score vs plate DMSO control; higher = more fusion). Details: 30 µM; 5 h; toxicity class: non-toxic, passed QC.
In the case of `CC(C)NCC(O)c1ccc(O)c(O)c1.Cl` (stereo not drawn), the “cell-cell fusion (z-score)” value is reported as inactive: -0.117. With `C[C@@H]1C[C@H]2[C@@H]3CCC4=CC(=O)C=C[C@]4(C)[C@]3(F)[C@H](O)C[C@]2(C)[C@]1(O)C(=O)CO` [Dexamethasone] the “cell-cell fusion (z-score)” value was inactive: 1.66. `CC(C)NCC(O)c1ccc(NS(C)(=O)=O)cc1.Cl` (racemic) [(±)-Sotalol hydrochloride] was tested, and the “cell-cell fusion (z-score)” value was inactive: 1.46. `OC1(c2ccc(Cl)cc2)CCN(Cc2c[nH]c3ccccc23)CC1` was tested, and the “cell-cell fusion (z-score)” value was inactive: 2.71. `CCOc1ccc(NC(C)=O)cc1` was tested, and the “cell-cell fusion (z-score)” value was inactive: 2.77. For `O=C1Cc2c([nH]c3ccc(Br)cc23)-c2ccccc2N1` [Kenpaullone], the “cell-cell fusion (z-score)” value was inactive: 1.47. For `Cc1cnc(NC(=O)C2=C(O)c3ccccc3S(=O)(=O)N2C)s1` [Meloxicam], the “cell-cell fusion (z-score)” value was inactive: 3.57. For `Cl.NC(Cc1ccc(Cl)cc1)C(=O)O` (racemic), the “cell-cell fusion (z-score)” value was inactive: 0.907. For `C[N+](C)(C)CC#CCOC(=O)Nc1cccc(Cl)c1.[Cl-]`, the “cell-cell fusion (z-score)” value was inactive: 1.73. `Cl.c1ccc2c(c1)CN1CCCC1=N2` was tested, and the “cell-cell fusion (z-score)” value was inactive: 1.98. In the case of `CC[C@@]1(O)C[C@H](O)c2c(cc3c(c2O)C(=O)c2c(O)ccc(O)c2C3=O)[C@H]1C(=O)OC`, the “cell-cell fusion (z-score)” value is reported as inactive: 1.71. For `Cl.N=C(N)NN`, the “cell-cell fusion (z-score)” value was inactive: 1.46. With `Cl.N=C(N)NN` [Aminoguanidine hydrochloride] the “cell-cell fusion (z-score)” value was inactive: 2.25. With `CC(C)c1nc(N(C)S(C)(=O)=O)nc(-c2ccc(F)cc2)c1/C=C/[C@@H](O)C[C@@H](O)CC(=O)[O-].[Ca+2]` the “cell-cell fusion (z-score)” value was inactive: 0.791. With `CC1(C)O[C@@H]2C[C@H]3[C@@H]4CCC5=CC(=O)CC[C@]5(C)[C@@]4(F)[C@@H](O)C[C@]3(C)[C@]2(C(=O)CCl)O1` [Halcinonide] the “cell-cell fusion (z-score)” value was inactive: 4.76. `COc1c(-c2coc3cc4c(cc3c2=O)CC(OC(C)=O)C(C)(C)O4)ccc2c1C=CC(C)(C)O2` (stereo not drawn) was tested, and the “cell-cell fusion (z-score)” value was inactive: 2.06. `CC(O)CC(C)(C)O` (stereo not drawn) was tested, and the “cell-cell fusion (z-score)” value was inactive: 2.71. In the case of `CCOC(=O)c1ccc(O)cc1`, the “cell-cell fusion (z-score)” value is reported as inactive: 4.8. With `COc1ccc2c(=O)cc(-c3ccccc3OC)oc2c1` the “cell-cell fusion (z-score)” value was inactive: 2.01. For `CC(=O)O[C@@H]1C2CC[C@@H]3C1(C[C@@H](O)[C@@]1(O)[C@@H](C[C@H](O)C1(C)C)[C@]3(C)O)C[C@@]2(C)O` (stereo partly drawn), the “cell-cell fusion (z-score)” value was inactive: 2.55. For `NC(=O)c1cccnc1` [Nicotinamide], the “cell-cell fusion (z-score)” value was inactive: 2.6. In the case of `O=C1[O][Bi]([OH])[O]c2ccccc21`, the “cell-cell fusion (z-score)” value is reported as inactive: 2.73. With `CC(=O)O[C@H]1C(=O)[C@@]2(C)C([C@H](OC(=O)c3ccccc3)[C@]3(O)C[C@H](OC(=O)[C@H](O)[C@@H](NC(=O)c4ccccc4)c4ccccc4)C(C)=C1C3(C)C)[C@]1(OC(C)=O)CO[C@@H]1C[C@H]2O` (stereo partly drawn) [Paclitaxel (Taxol)] the “cell-cell fusion (z-score)” value was inactive: 1.78. With `COc1cc2ncnc(-n3nc(-c4ccccn4)nc3N)c2cc1OC` the “cell-cell fusion (z-score)” value was inactive: 1.48. In the case of `CC(=O)O[C@H]1C[C@@H](OC(C)=O)C(C)(C)C2C[C@@H](OC(C)=O)[C@]3(C)C(CC[C@@]4(C)[C@H](c5ccoc5)OC(=O)[C@H]5O[C@]543)[C@]21C` (stereo partly drawn), the “cell-cell fusion (z-score)” value is reported as inactive: 2.27. For `Cc1cc2nc3c(=O)[nH]c(=O)nc-3n(C[C@H](O)[C@H](O)[C@H](O)COP(=O)([O-])O)c2cc1C.[Na+]` [Flavin mononucleotide], the “cell-cell fusion (z-score)” value was inactive: 2.68. With `CCn1cc(C(=O)O)c(=O)c2cc(F)c(N3CCNC(C)C3)c(F)c21.Cl` (stereo not drawn) [Lomefloxacin hydrochloride] the “cell-cell fusion (z-score)” value was inactive: 2.62. In the case of `O=c1c(O)c(-c2ccccc2)oc2cc(O)cc(O)c12`, the “cell-cell fusion (z-score)” value is reported as inactive: 1.11. With `CCC1(c2ccc(N)cc2)CCC(=O)NC1=O` (stereo not drawn) [Aminoglutethimide] the “cell-cell fusion (z-score)” value was inactive: 2.23. With `O=C(Cc1ccc(-c2ccc(OCCN3CCOCC3)cc2)cn1)NCc1ccccc1` the “cell-cell fusion (z-score)” value was inactive: -0.0667. For `CCCCCCCCCCCCCCCC[n+]1ccccc1.[Cl-]`, the “cell-cell fusion (z-score)” value was -2.72 ± 0.49. For `O=[N+]([O-])c1cccc2cn[nH]c12`, the “cell-cell fusion (z-score)” value was inactive: 3.17. In the case of `CCc1cncnc1N1CCN(Cc2nc3cc(C(F)(F)F)ccc3[nH]2)CC1`, the “cell-cell fusion (z-score)” value is reported as inactive: 2.54. `CCN(C(C)=O)c1cccc(-c2ccnc3c(C#N)cnn23)c1` was tested, and the “cell-cell fusion (z-score)” value was inactive: 3.58. In the case of `O=c1[nH]c2cc([N+](=O)[O-])c([N+](=O)[O-])cc2[nH]c1=O`, the “cell-cell fusion (z-score)” value is reported as inactive: 1.67. For `O=C(O)CCc1nc2ccccc2[nH]1`, the “cell-cell fusion (z-score)” value was inactive: 0.965. With `O=C1c2ccccc2C(=O)c2c(NCCc3ccc(O)cc3)ccc(NCCc3ccc(O)cc3)c21` the “cell-cell fusion (z-score)” value was active: -13.4. With `Cl.N[C@@H](Cc1c[nH]cn1)C(=O)O` [L-Histidine hydrochloride] the “cell-cell fusion (z-score)” value was inactive: 2.96. In the case of `CC(=O)Oc1cc2c(s1)CCN(C(C(=O)C1CC1)c1ccccc1F)C2` (stereo not drawn) [Prasugrel], the “cell-cell fusion (z-score)” value is reported as inactive: 3.22. In the case of `Brc1ccc([C@H]2CN3CCSC3=N2)cc1.O=C(O)C(=O)O` [S(-)-p-Bromotetramisole oxalate], the “cell-cell fusion (z-score)” value is reported as inactive: 1.48. For `CC(=O)Oc1cc(C(C)C)c(OCCN(C)C)cc1C.Cl`, the “cell-cell fusion (z-score)” value was inactive: 1.66. `CC(=O)Oc1cc(C(C)C)c(OCCN(C)C)cc1C.Cl` [Moxisylyte hydrochloride] was tested, and the “cell-cell fusion (z-score)” value was inactive: 2.4. In the case of `CSC(=N)N.CSC(=N)N.O=S(=O)(O)O` [S-Methylisothiourea hemisulfate], the “cell-cell fusion (z-score)” value is reported as inactive: 2.56. For `C[C@]12CCC(=O)C(O)=C1CC[C@@H]1[C@H]2CC[C@]2(C)C(=O)CC[C@@H]12` [Formestane], the “cell-cell fusion (z-score)” value was inactive: 1.83. For `O=C(O)CCCCC1SCC2NC(=O)NC21` (stereo not drawn), the “cell-cell fusion (z-score)” value was inactive: 3.56. `COc1ccc(CCN2CCC(Nc3nc4ccccc4n3Cc3ccc(F)cc3)CC2)cc1` was tested, and the “cell-cell fusion (z-score)” value was inactive: -0.408. `C#C[C@]1(O)CCC2C3CCC4=CC(=O)CC[C@@H]4C3CC[C@@]21CC` (stereo partly drawn) was tested, and the “cell-cell fusion (z-score)” value was inactive: 1.14. For `Cc1c2oc3c(C)ccc(C(=O)OC(C)C4NC(=O)C(C(C)C)N(C)C(=O)CN(C)C(=O)C5CCCN5C(=O)C(C(C)C)NC4=O)c3nc-2c(C(=O)OC(C)C2NC(=O)C(C(C)C)N(C)C(=O)CN(C)C(=O)C3CCCN3C(=O)C(C(C)C)NC2=O)c(N)c1=O` (stereo not drawn), the “cell-cell fusion (z-score)” value was inactive: -0.173.
